Assay results reported in US20230190745A1, “USE OF METABOLIC REGULATORS FOR THE TREATMENT OF COVID-19” (YISSUM RESEARCH DEVELOPMENT COMPANY OF THE HEBREW …, priority 2020, published 2023).
For at least one compound, name, drawing or mass did not settle the structure.

Columns and labels:
COVID-19 patients = experiment: Observational comparison of representation of metabolic regulator users in hospital records versus COVID-19 cases (chi-squared / IRR, Table 3); format: in vivo, human; conditions: chi-squared test vs general hospital medical records
SARS-CoV-2 = experiment: Viral load quantitative real-time PCR in SARS-CoV-2 infected NHBE cells under drug treatment; format: cell-based; conditions: primary lung epithelial cells
[1] = test system: SARS-CoV-2 infected primary lung cells; format: cell-based, human; conditions: Cmax concentration

SMILES	representation among COVID-19 severity indicators (hospitalization, ICU admission, deaths) (COVID-19 patients)	SARS-CoV-2 replication in vitro (SARS-CoV-2)	glycolytic index / increase in glycolysis [1]
CC(C)(Oc1ccc(CCNC(=O)c2ccc(Cl)cc2)cc1)C(=O)O [bezafibrate]	underrepresented in ICU admissions and deaths		
CC(C)OC(=O)C(C)(C)Oc1ccc(C(=O)c2ccc(Cl)cc2)cc1 [fenofibrate]		blocked SARS-CoV-2 replication	blocked phospholipid accumulation (p<0.001) and the increase in glycolysis
